{
  "sequences": {"note": "Chains of the proteins cited; added tags and fusions are not shown.", "UniProt Q8NER1, whole entry, looked up": "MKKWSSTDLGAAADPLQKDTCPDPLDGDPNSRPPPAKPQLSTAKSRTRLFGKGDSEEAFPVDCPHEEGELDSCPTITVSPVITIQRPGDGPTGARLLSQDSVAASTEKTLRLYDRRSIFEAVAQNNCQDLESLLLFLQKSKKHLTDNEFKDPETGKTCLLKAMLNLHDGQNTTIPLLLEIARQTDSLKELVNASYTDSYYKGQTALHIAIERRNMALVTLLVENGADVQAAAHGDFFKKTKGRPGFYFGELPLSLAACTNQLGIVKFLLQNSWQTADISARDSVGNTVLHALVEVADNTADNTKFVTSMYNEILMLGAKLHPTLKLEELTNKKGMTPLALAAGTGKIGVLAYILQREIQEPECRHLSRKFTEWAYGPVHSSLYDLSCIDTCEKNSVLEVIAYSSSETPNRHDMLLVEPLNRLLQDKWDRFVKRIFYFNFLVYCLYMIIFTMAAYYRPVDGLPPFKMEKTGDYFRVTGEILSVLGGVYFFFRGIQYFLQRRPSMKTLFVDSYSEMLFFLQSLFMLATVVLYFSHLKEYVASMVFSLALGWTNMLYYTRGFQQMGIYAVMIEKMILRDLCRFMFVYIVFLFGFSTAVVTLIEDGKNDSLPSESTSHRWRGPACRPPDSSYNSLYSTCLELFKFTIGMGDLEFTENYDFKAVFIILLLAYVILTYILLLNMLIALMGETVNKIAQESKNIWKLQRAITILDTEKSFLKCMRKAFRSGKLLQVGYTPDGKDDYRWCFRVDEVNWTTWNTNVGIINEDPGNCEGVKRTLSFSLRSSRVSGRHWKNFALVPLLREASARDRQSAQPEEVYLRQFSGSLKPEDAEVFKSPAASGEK"},
  "source": "PubChem BioAssay AID540275",
  "about": "(National Center for Advancing Translational Sciences (NCATS), 2011)",
  "note": "The campaign covered roughly 320,000 compounds. About 620 (0.19%) were called active. The shares of active, inactive and inconclusive entries below differ from those in the screen. No stated cut-off is given here; in the data, active means activation above about 80%; inconclusive means between about 30% and that limit; inactive means weaker than that.",
  "data": [
    {"biological_target": "Transient receptor potential cation channel subfamily V member 1 (Homo sapiens) (UniProt Q8NER1)", "experiment": "HTS Assay for Compounds that Act as Agonists of the Vanilloid Receptor 1; further: 0% is about no effect", "details": "TRPV1-expressing cells, Fluo-8 calcium influx, agonist mode; at 8.33 µM, active compounds read high", "how_it_was_run": "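Fluo-8 calcium influx in TRPV1-expressing cells, kinetic read (ex 480/em 520 nm). Compound added and read 3 min for agonist activity, followed by capsaicin at EC20 final and 2 min further read for enhancement.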", "values": [
      {"compound": "COc1ccccc1C(=O)Oc1cc(C)[nH]c(=O)c1[N+](=O)[O-]", "activation": "inactive: -1.15%"},
      {"compound": "CCOc1ccc2nc(SCc3ccc(OC)cc3)sc2c1", "activation": "inconclusive: 57.8%"},
      {"compound": "CC(=Nc1ccccc1)c1sc2ccccc2c1O", "activation": "inconclusive: 34.9%"},
      {"compound": "O=C1CC2(CCN(C(=O)c3cccc([N+](=O)[O-])c3)CC2)Oc2ccccc21", "activation": "inconclusive: 72.3%"},
      {"compound": "NC(=S)Nc1ncc(C(F)(F)F)cc1Cl", "activation": "inactive: -0.0843%"},
      {"compound": "O=C(/C=C/c1cn(CC(O)CN2CCCCCC2)c2ccccc12)c1cccs1", "note": "(stereo not given)", "activation": "inactive: 12.1%"},
      {"compound": "O=C(CSc1ccc(Cl)cc1)N/N=C/c1cccnc1", "activation": "inconclusive: 37.7%"},
      {"compound": "O=C(Nc1ccccn1)c1ccc([N+](=O)[O-])o1", "activation": "inactive: 2.24%"},
      {"compound": "CCOC(=O)c1nn(-c2ccc(Cl)cc2)c2nc(-c3ccc(C)cc3)c(C#N)c(=O)n12", "activation": "inactive: -2.53%"},
      {"compound": "Fc1ccccc1COc1ccccc1CNCc1ccncc1", "activation": "inconclusive: 34.4%"},
      {"compound": "O=c1ccc2cc(S(=O)(=O)N3CCN(c4ccccc4F)CC3)ccc2[nH]1", "activation": "inconclusive: 33.1%"},
      {"compound": "O=C1c2ccccc2-c2cccc(NS(=O)(=O)c3ccc(C(F)(F)F)cc3)c21", "activation": "inactive: 7.08%"},
      {"compound": "Cc1nonc1C(=O)N/N=C/c1ccc(O)c(O)c1", "activation": "inactive: 3.42%"},
      {"compound": "CC(=O)c1cccc(NC2c3ccccc3C(=O)N2Cc2ccc3c(c2)OCO3)c1", "note": "(stereo not given)", "activation": "inconclusive: 47.9%"},
      {"compound": "COc1ccc(N(C(=O)c2snc(C(N)=O)c2N)C(CC(C)C)C(=O)NCC2CCCO2)cc1", "note": "(stereo not given)", "activation": "inactive: 0.414%"},
      {"compound": "Brc1ccccc1C1=Nn2c(nnc2-c2ccco2)SC1", "activation": "inconclusive: 36.8%"},
      {"compound": "CC(=O)N1CCN(S(=O)(=O)c2cccc(C(=O)Nc3ccccc3N3CCCCC3)c2)CC1", "activation": "inconclusive: 48.9%"},
      {"compound": "Cc1ccc(OCc2nc3ccccc3n2C)cc1", "activation": "inconclusive: 40.8%"},
      {"compound": "Cc1cc(NC(=O)/C=C/C(=O)N(c2ccccc2C)C(C(=O)NC2CCCC2)c2ccc(F)cc2)no1", "note": "(stereo not given)", "activation": "inconclusive: 49.8%"},
      {"compound": "O=c1cc(/C=C/c2ccccc2)oc2ccccc12", "activation": "inconclusive: 44.1%"},
      {"compound": "CC(C)(C)c1ccc(OC2=CS(=O)(=O)c3ccccc32)cc1", "activation": "inconclusive: 54.8%"},
      {"compound": "O=C(CN1CCC(n2nnc3cc(C(F)(F)F)ccc32)CC1)Nc1ccc2c(c1)OCCO2", "activation": "inactive: 4.99%"},
      {"compound": "CC(=O)c1ccccc1OC(=O)COc1ccc(Cl)cc1C", "activation": "inactive: 6.44%"},
      {"compound": "O=C(COC(=O)c1ccc(Br)o1)NCc1ccc(F)cc1", "activation": "inconclusive: 46.8%"},
      {"compound": "Cc1cccc(NC(=O)c2nc[nH]c2C(=O)N[C@H](C)c2ccccc2)c1", "activation": "inconclusive: 39.6%"}
    ]}
  ]
}
